Measured values published in patent US20190240184A1, “PHARMACEUTICAL APPLICATIONS FOR (S)-N[…] SALTS THEREOF” (NATIONAL UNIVERSITY CORPORATION CHIBA UNIVERSITY, priority 2016, published 2019).

Legend:
[1] = test system: social defeat stress mice; assay: Locomotion test (LMT) in social defeat stress model of depression; details: 10 mg/kg intraperitoneally, vs normal mice and stress mice administered saline
LPS-treated mice = assay: Locomotion test (LMT) in LPS-induced inflammatory model of depression; details: LMT 1 h after
[2] = 10 mg/kg intraperitoneally 23 h after LPS, vs normal and saline groups

SMILES | amount of locomotion in LMT [1] | amount of locomotion in LMT (LPS-treated mice; [2]) | amount of locomotion in LMT (LPS-treated mice; 5, 10, or 20 mg/kg intraperitoneally 23 h after LPS, vs normal mice and LPS-treated mice administered saline)
N[C@]1(c2ccccc2Cl)CCCCC1=O [(S)-norketamine] | no difference in amount of locomotion | – | –
CNC1(c2ccccc2Cl)CCCCC1=O (racemic) [ketamine] | – | no difference in amount of locomotion | –
NC1(c2ccccc2Cl)CCCCC1=O (centres unmarked) [norketamine] | – | no difference in amount of locomotion | no difference in amount of locomotion
N[C@@]1(c2ccccc2Cl)CCCCC1=O [(R)-norketamine] | no difference in amount of locomotion | – | –
